According to doi:10.1101/2024.11.07.622557:
These are yes or no findings as the source states them, for the method shown. Binding seen in cells or lysates may run through a third protein. Some results given as binding are weak or reduced against the parent protein; the word gives no strength. Sequences can lack the tags named with a protein. Each block holds one molecule with its values, some of them ahead of it.

Amino acid sequences for entries named in this document (tags omitted). A change or cut given only in a name is not applied to a line headed by its entry. Residues count along the entry.
UniProt P08581: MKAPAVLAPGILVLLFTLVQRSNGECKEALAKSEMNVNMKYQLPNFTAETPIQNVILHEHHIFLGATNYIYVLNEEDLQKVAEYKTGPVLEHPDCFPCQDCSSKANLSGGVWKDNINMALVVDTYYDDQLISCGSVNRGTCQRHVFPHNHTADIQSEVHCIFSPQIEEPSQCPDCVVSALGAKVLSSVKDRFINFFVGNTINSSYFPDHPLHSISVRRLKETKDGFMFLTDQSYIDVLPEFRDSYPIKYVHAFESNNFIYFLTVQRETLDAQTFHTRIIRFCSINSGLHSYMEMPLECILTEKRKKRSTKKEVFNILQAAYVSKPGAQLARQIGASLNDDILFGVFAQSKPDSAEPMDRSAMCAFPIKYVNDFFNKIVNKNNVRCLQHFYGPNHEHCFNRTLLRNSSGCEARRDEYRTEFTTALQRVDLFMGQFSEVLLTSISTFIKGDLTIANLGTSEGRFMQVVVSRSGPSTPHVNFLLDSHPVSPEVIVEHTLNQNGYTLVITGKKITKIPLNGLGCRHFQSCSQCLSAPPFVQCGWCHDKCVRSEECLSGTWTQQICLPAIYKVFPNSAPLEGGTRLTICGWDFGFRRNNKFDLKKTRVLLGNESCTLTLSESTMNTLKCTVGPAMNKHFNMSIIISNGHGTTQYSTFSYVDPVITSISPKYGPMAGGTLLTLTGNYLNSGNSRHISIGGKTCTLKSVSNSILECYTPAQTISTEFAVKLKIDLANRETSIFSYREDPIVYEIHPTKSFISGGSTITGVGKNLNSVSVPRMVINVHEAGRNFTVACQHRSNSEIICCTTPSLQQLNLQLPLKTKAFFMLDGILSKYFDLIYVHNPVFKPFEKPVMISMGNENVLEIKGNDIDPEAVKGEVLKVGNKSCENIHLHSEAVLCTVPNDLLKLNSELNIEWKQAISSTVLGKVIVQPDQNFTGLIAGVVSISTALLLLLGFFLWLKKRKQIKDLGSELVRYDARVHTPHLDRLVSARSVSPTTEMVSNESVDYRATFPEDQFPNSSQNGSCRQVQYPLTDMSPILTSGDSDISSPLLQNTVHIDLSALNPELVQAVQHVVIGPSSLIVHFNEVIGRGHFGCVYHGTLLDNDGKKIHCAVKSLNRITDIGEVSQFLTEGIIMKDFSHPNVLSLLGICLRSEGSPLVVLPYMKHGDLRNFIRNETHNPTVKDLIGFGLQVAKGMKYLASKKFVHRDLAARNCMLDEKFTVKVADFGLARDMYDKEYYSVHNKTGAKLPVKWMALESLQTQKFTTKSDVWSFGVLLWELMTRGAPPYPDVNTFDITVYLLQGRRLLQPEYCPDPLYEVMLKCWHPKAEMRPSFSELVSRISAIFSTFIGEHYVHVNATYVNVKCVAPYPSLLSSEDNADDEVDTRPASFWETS
c-Met (human (endogenous in HepG2 and Hep3B)): residues 25-1390 of P08581

Legend:
LgBiT-tagged HHLA2 = target: T1, LgBiT-tagged HHLA2 (UniProt Q9UM44); assay: split reporter
T1 sequence: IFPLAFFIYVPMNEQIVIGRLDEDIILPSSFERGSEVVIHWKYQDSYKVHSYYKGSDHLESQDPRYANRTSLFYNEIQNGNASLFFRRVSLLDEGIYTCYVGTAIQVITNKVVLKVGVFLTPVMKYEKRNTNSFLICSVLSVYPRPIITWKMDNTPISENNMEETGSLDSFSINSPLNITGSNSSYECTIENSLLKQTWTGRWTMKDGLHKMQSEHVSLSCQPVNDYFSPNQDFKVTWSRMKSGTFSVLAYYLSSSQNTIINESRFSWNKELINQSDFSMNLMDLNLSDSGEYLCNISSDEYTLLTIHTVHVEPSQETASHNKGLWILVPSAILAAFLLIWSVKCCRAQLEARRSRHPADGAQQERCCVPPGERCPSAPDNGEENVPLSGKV

HHLA2-HA = target: T2, HHLA2-HA (UniProt Q9UM44); assay: co-IP
T2 sequence (chain, extensively glycosylated (smeared band on western blots); sites not stated): T1 sequence

[1] = target: c-Met (human (endogenous in HepG2 and Hep3B)) (UniProt P08581); assay: co-IP

binding (LgBiT-tagged HHLA2): binds
Molecule: c-MET-ExD-SmBit-6His recombinant protein (from UniProt P08581 25-932) (domain or fragment)

binding (HHLA2-HA): binds
Molecule: c-Met (from UniProt P08581 25-1390) (receptor)

binding [1]: binds
B1: HHLA2-HA (protein, UniProt Q9UM44 23-414)
chain: T1 sequence
modifications: extensively glycosylated (smeared band on western blots); sites not stated
